# Results taken from PubChem BioAssay AID926 (National Center for Advancing Translational Sciences (NCATS), 2007).
# By UniProt entry, the sequences of proteins in these tests, tags left out.
# UniProt P16473, whole entry, looked up: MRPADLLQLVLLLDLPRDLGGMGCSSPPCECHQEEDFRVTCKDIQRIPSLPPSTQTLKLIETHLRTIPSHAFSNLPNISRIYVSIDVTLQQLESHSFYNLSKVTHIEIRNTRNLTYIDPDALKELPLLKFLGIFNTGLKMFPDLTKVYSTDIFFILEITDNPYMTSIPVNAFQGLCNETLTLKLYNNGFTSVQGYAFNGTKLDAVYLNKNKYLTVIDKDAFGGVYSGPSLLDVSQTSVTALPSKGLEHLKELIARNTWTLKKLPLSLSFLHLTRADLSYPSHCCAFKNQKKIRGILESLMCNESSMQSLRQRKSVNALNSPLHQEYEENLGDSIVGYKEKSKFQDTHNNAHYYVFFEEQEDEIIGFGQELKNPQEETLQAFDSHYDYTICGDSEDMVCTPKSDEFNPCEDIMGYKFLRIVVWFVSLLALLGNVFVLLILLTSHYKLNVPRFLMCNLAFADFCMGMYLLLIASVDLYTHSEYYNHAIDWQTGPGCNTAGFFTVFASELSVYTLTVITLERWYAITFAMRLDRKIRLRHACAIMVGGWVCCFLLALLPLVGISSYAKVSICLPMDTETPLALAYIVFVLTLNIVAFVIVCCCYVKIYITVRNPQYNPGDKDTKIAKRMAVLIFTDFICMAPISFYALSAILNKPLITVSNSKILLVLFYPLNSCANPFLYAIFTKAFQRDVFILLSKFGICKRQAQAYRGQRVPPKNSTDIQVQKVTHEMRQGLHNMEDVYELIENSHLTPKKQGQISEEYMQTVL
# About 350 (0.48%) of roughly 73,000 compounds were called active. About 17% were inconclusive and are not listed. The call rests on the fitted dose curve; in most records, active means well fitted activation curve with a large enough effect in the main read-out, with a control signal flat (not every such curve was filed as active); inconclusive means small, poorly fitted or top-dose-only effect, or a change in a side signal; inactive means no such curve, though single readings can be large or run the other way; reference of the percent scale not stated here. This is a selection; strong and weak results do not stand in their true shares. The source gives no active or inactive call for entries shown without one.
# Molecular target: Thyrotropin receptor (Homo sapiens) (UniProt P16473)
# Assay: qHTS Assay for Agonists of the Thyroid Stimulating Hormone Receptor
# Conditions: HEK293-CNG-TSHR cells (CNG channel as cAMP sensor), membrane potential dye, cAMP; activation: at 57.1 µM (top of the series) unless noted
# Text: NIH Chemical Genomics Center [NCGC]
# NIH Molecular Libraries Screening Centers Network [MLSCN]
# PI Name: Dr. Marvin Gershengorn, NIH
# Thyroid Stimulating Hormone Receptor
# TSH is an alpha/beta heterodimeric glycoprotein hormone secreted from the anterior pituitary gland which belongs to the glycoprotein hormone family. The actions of TSH are mediated by a seven-transmembrane receptor, which upon TSH binding couples preferentially to the G-alpha (s) protein (Gs), resulting in activation of adenylate cyclase and increase in cyclic adenosine 3', 5' monophosphate (cAMP). The TSH receptor (THSR) is mainly expressed in thyroid follicular cells and regulates their growth and function. Recombinant TSH is used to activate TSHR in patients with thyroid cancer receiving thyroid hormone suppression therapy and to screen for residual tumor after surgery, but it is expensive and must be administered intramuscularly. An orally active small molecule TSHR agonist would serve as an invaluable research tool for studying TSHR pharmacology and physiology, and would have multiple advantages in therapeutic settings. However, no selective small molecule agonist of the TSH receptor exists, and no small molecule screen for TSHR agonists has ever been reported.
# This cell based assay utilized a cyclic nucleotide gated ion channel (CNG) as a biosensor for cAMP induction by potential TSHR agonists.
# HEK 293 cells stably expressing the TSHR as well as a modified CNG were purchased from BD biosciences. Stimulation of cAMP production causes the CNG to open and subsequent membrane depolarization to occur. A fluorescent membrane potential dye (BD biosciences) was utilized to detect cAMP stimulation in TSHR cells.
# The cells were maintained in DMEM medium (Invitrogen) containing 10 % FBS (Hyclone), 100 units/ml Penicillin, 100 ug/ml Streptomycin (Invitrogen), and 250 ug/ml Geneticin (Invitrogen) and 1 ug/ml Puromycin (Invitrogen) at 37C in 5% CO2. HEK 293 cells expressing CNG but without TSHR (parental cells) were used in concert to control for compounds signaling through endogenous receptors and targets of HEK 293 cells.
# NCGC Assay Protocol Summary:
# High Throughput Screening. Freshly passaged cells (TSHR or parental) were dispensed into 1536-well assay plates at 4 ul/well in DMEM containing phenol red (Invitrogen), 10% FCS (Hyclone), and 100 units/ml Penicillin, 100 ug/ml Streptomycin (Invitrogen) and incubated at 37 C with 5% CO2 for 20 to 36 hrs before the robotic screening. The screen was initiated by addition of 4 ul/well membrane potential dye containing 100 uM RO 20-1724 (Sigma Aldrich), followed by 60 min incubation at room temperature to allow for dye equilibration across the cell membrane. 23 nl/well compound or control was then added to the assay plates, which were incubated for additional 30 min before reading a Envision fluorescence plate reader (Perkin Elmer) in bottom-read mode for fluorescence intensity (emission at 590 nm).
# Keywords: Thyroid-stimulating hormone TSH, TSHR, TSHR agonist, quantitative high throughput screening, qHTS, HTS, probe identification, CNG, cAMP, cyclic nucleotide gated ion channel PubChem
# Potency means the concentration at half of the fitted maximal effect.
Structure (SMILES),activation,Potency
CC(C)Oc1ccc2c(=O)c3cc(C(=O)O)ccc3oc2c1,33.9%,
O=C1c2ccccc2C(O)N1Cc1ccccc1 (stereo unspecified),36%,
CC(C)CCn1c(N)c(S(=O)(=O)c2cccs2)c2nc3ccccc3nc21,,active: 12.6 µM
NC(=O)c1nsc(C(=O)N(CC(=O)NCc2ccc3c(c2)OCO3)C2CCCC2)c1N,,active: 12.6 µM
CC(C)=C1C2C=CC1C1C(=O)N(c3ccc4c(c3)OCO4)C(=O)C21 (stereo unspecified),,active: 2.51 µM
COc1cccc(-c2nn(-c3ccccc3)cc2CO)c1,inactive: -47.4%,
O=C(Nc1ccc2nc(C3CC3)n(Cc3ccc(F)cc3)c(=O)c2c1)c1ccco1,46.3%,
CCOc1cc2[nH]c(=O)n(CC3CCC(C(=O)NCCC(C)C)CC3)c(=O)c2cc1OCC (stereo unspecified),33.5%,
CC(C)C(c1nnnn1Cc1ccco1)N1CCN(c2nc3ccccc3s2)CC1 (stereo unspecified),36.9%,
O=C(CSc1nc2scc(-c3ccco3)c2c(=O)n1-c1ccccc1)N1CCOCC1,,active: 15.8 µM
Cc1ccc(C(N)=S)c(C)c1,46%,
Cn1cc(CN2CCN(c3ccccc3)CC2)c2ccccc21,51.1%,
N=c1c(C(=O)NCc2ccc(F)cc2)cc2c(=O)n3ccccc3nc2n1Cc1ccco1,inactive: -42%,
CCCCCCn1c(-c2ccco2)nc2oc3cc(OC)ccc3c(=O)c2c1=O,54.1%,
COc1ccc(C(C(=O)NC2CCCC2)N(C(=O)c2ccco2)c2ccc3c(c2)OCO3)cc1OC (stereo unspecified),,active: 10 µM
O=C1N=C(N2CCOCC2)S/C1=C1\C(=O)N(Cc2ccccc2)c2ccc(Br)cc21,inactive: -42.1%,
Cc1ccc(-n2c(SCC(=O)Nc3ccc4cn[nH]c4c3)nnc2-c2ccco2)cc1,44.8%,
COC(=O)c1ccc(CN2C(=O)c3ccccc3S2(=O)=O)cc1,58.1%,

# Quoted at random: 3 compounds from above
Structure (SMILES),activation,Potency
O=C(CSc1nc2scc(-c3ccco3)c2c(=O)n1-c1ccccc1)N1CCOCC1,,active: 15.8 µM
Cc1ccc(C(N)=S)c(C)c1,46%,
CC(C)C(c1nnnn1Cc1ccco1)N1CCN(c2nc3ccccc3s2)CC1 (stereo unspecified),36.9%,

# The listing continues.

Structure (SMILES),activation,Potency
COc1cc(OC)c(NC2=NCCCCC2)cc1Cl,34.7%,
CCc1cc(Br)ccc1N1C(=O)C2CC=CCC2C1=O (stereo unspecified),,active: 2.51 µM
COc1ccccc1NS(=O)(=O)c1ccc(C(=O)OCC(=O)NCc2ccco2)cc1,54.3%,
CC(=O)c1cn(CC(=O)Nc2ccccc2)c2ccccc12,41.4%,
O=C(c1cccc(F)c1)N1C2C=CC(C2)C1(C(F)(F)F)C(F)(F)F (stereo unspecified),,active: 25.1 µM
Cc1ccc(NC(=O)COC(=O)c2ccn(C)n2)cc1,31.9%,
CCOC(=O)N1CCN(C(=O)c2cn(-c3ccc(C)c(C)c3)c(=O)c3ccccc23)CC1,37.7%,
COC(=O)[C@H]1C[C@@H]1[C@H](NC(=O)OCc1ccccc1)c1ccccc1,99.7%,
CC1(C)S[C@@H]2[C@H](NC(=O)[C@H](C(=O)O)c3ccsc3)C(=O)N2[C@H]1C(=O)O,31.4% [at 25.6 µM],
CCOC(=O)C1=C(C)Nc2ncnn2C1/C=C/c1ccccc1 (stereo unspecified),36.3%,
CCOC(=O)CSC1=Nc2ccccc2C2=NC(CC(=O)NCc3ccc(OC)cc3)C(=O)N12 (stereo unspecified),36.3%,
COc1cc(C(=O)OCC(=O)NC2CCCC2)cc(NC(=O)c2ccco2)c1OC,39.8%,
CO[C@@H]1C=CO[C@]2(C)Oc3c(C)c(O)c4c(O)c(c(C=NN5CCN(C)CC5)c(O)c4c3C2=O)NC(=O)C(C)=CC=C[C@H](C)[C@H](O)[C@H](C)[C@H](O)[C@H](C)[C@H](OC(C)=O)[C@H]1C,inactive: -6.69% [at 25.6 µM],
N[C@H]1CCN(O)C1=O,inactive: 8.72%,
C=CCc1ccccc1OC[C@H](O)CNC(C)C,inactive: -5.14% [at 25.6 µM],
CCOC(=O)C(NC(=O)c1ccc(OC)cc1)(OCC1(CC)COC1)C(F)(F)F (stereo unspecified),,active: 7.94 µM
Cc1oc(-c2cc(Cl)ccc2Cl)cc1-c1nn2c(C)nnc2s1,35.4%,
N[C@H](C(=O)O)c1cc(O)cc(O)c1,30%,
